Assay results published in PubChem BioAssay (NCATS).
Only results without a clear call are listed here; the source files them as inconclusive. Unless noted, calls follow the shape of the dose curve; as a rule, active = well fitted inhibition curve with a large enough effect; inconclusive = small, poorly fitted or top-dose-only effect; inactive = flat fitted curve, though single readings scatter. Some results for these compounds are left out of this collection, so the calls shown say nothing about other tests.

Protein sequences, listed by entry. Tags and fused reporters are not part of them. Residues count along the entry.
UniProt Q12809, 1-548 isoform 6: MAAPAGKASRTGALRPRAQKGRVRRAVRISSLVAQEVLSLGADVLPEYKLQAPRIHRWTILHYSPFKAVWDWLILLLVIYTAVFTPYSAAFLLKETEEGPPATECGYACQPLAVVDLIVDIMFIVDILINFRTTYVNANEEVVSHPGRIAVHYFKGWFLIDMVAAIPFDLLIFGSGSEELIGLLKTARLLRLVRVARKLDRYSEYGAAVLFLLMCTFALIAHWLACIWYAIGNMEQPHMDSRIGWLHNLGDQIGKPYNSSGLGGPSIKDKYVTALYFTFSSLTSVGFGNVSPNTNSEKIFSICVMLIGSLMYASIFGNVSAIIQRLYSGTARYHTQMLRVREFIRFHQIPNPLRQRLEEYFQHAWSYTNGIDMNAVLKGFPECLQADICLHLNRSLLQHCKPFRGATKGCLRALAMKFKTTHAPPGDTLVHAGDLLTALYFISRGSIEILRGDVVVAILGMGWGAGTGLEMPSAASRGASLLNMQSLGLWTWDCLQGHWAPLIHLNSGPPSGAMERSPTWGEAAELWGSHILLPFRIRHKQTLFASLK

Legend:
[1] = NFAT Signaling Pathway (AID 444; active = well fitted curve in either direction with a large enough effect, not every such curve was filed as active; inconclusive = small, poorly fitted or top-dose-only effect, or another doubt;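 also: carbachol stimulus at about its EC50 of 1 µM final; % is scaled to controls: 0 for no effect and ±100 for the full control effect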); settings: Jurkat NFAT-bla M1, carbachol, beta-lactamase ratio, 5 h; at 7.69 µM (top of the series)
Outline: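 Jurkat cells carrying an NFAT-driven β-lactamase reporter and co-transfected muscarinic M1 receptor were treated with compound plus carbachol (1 uM final, an EC50 level) for 5 h at 37 °C. CCF4 loading followed for 1 h at RT; 460/530 nm ratio gave %activity.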

[2] = target: Voltage-gated inwardly rectifying potassium channel KCNH2 (Homo sapiens) (UniProt Q12809); assay: qHTS Assay for Small Molecule Inhibitors of the Human hERG Channel Activity (AID 588834); settings: U2OS BacMam hERG, FluxOR thallium flux fluorescence;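 also: potency is read from the fitted curve at half-maximal effect; lower thallium flux fluorescence means stronger hERG block; nearly all actives have a fitted effect of over 50% in size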
[3] = S16 Schwann cell PMP22 intronic element beta-lactamase assay (AID 624044; calls by dose curve;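 also: 0% = DMSO and -100% = potassium clavulanate positive control; nearly all actives have a fitted effect of over 15% in size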); settings: S16 rat Schwann cells, PMP22 element beta-lactamase FRET, 24 h; at 38.3 µM (top of the series)
[4] = qHTS profiling for inhibitors of Plasmodium falciparum proliferation (AID 504749); also: potency is read from the fitted curve at half-maximal effect; nearly all actives have a fitted effect of over 60% in size; settings: P. falciparum in erythrocytes, SYBR Green DNA, 72 h
Outline: (§1)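 Quantitative HTS: compounds pinned into medium, infected erythrocytes added (0.3% parasitemia, 2.5% hematocrit), 72 h culture at 37 C under 5% CO2. Saponin/Triton lysis with SYBR Green I, overnight RT, then fluorescence read.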

[5] = tested on: AS120; assay: as above; settings: P. falciparum in erythrocytes, SYBR Green DNA, 72 h
Outline: as §1

[6] = tested on: ATS189; assay: as above; settings: P. falciparum in erythrocytes, SYBR Green DNA, 72 h
Outline: as §1

[7] = tested on: ATS95; assay: as above; settings: P. falciparum in erythrocytes, SYBR Green DNA, 72 h
Outline: as §1

[8] = tested on: C2A; assay: as above; settings: P. falciparum in erythrocytes, SYBR Green DNA, 72 h
Outline: as §1

[9] = tested on: CP185; assay: as above; settings: P. falciparum in erythrocytes, SYBR Green DNA, 72 h
Outline: as §1

[10] = tested on: CP191; assay: as above; settings: P. falciparum in erythrocytes, SYBR Green DNA, 72 h
Outline: as §1

[11] = tested on: CP192; assay: as above; settings: P. falciparum in erythrocytes, SYBR Green DNA, 72 h
Outline: as §1

[12] = tested on: CP194; assay: as above; settings: P. falciparum in erythrocytes, SYBR Green DNA, 72 h
Outline: as §1

[13] = tested on: CP201; assay: as above; settings: P. falciparum in erythrocytes, SYBR Green DNA, 72 h
Outline: as §1

[14] = tested on: CP203; assay: as above; settings: P. falciparum in erythrocytes, SYBR Green DNA, 72 h
Outline: as §1

[15] = tested on: CP211; assay: as above; settings: P. falciparum in erythrocytes, SYBR Green DNA, 72 h
Outline: as §1

[16] = tested on: CP215; assay: as above; settings: P. falciparum in erythrocytes, SYBR Green DNA, 72 h
Outline: as §1

[17] = tested on: CP217; assay: as above; settings: P. falciparum in erythrocytes, SYBR Green DNA, 72 h
Outline: as §1

[18] = tested on: CP238; assay: as above; settings: P. falciparum in erythrocytes, SYBR Green DNA, 72 h
Outline: as §1

[19] = tested on: CP247; assay: as above; settings: P. falciparum in erythrocytes, SYBR Green DNA, 72 h
Outline: as §1

[20] = tested on: CP250; assay: as above; settings: P. falciparum in erythrocytes, SYBR Green DNA, 72 h
Outline: as §1

[21] = tested on: CP252; assay: as above; settings: P. falciparum in erythrocytes, SYBR Green DNA, 72 h
Outline: as §1

[22] = tested on: CP265; assay: as above; settings: P. falciparum in erythrocytes, SYBR Green DNA, 72 h
Outline: as §1

[23] = tested on: CP266; assay: as above; settings: P. falciparum in erythrocytes, SYBR Green DNA, 72 h
Outline: as §1

[24] = tested on: CP268; assay: as above; settings: P. falciparum in erythrocytes, SYBR Green DNA, 72 h
Outline: as §1

[25] = tested on: CP269; assay: as above; settings: P. falciparum in erythrocytes, SYBR Green DNA, 72 h
Outline: as §1

[26] = tested on: CP286; assay: as above; settings: P. falciparum in erythrocytes, SYBR Green DNA, 72 h
Outline: as §1

[27] = tested on: CP291; assay: as above; settings: P. falciparum in erythrocytes, SYBR Green DNA, 72 h
Outline: as §1

[28] = tested on: CP297; assay: as above; settings: P. falciparum in erythrocytes, SYBR Green DNA, 72 h
Outline: as §1

[29] = tested on: CP305; assay: as above; settings: P. falciparum in erythrocytes, SYBR Green DNA, 72 h
Outline: as §1

[30] = tested on: CP315; assay: as above; settings: P. falciparum in erythrocytes, SYBR Green DNA, 72 h
Outline: as §1

[31] = tested on: CP325; assay: as above; settings: P. falciparum in erythrocytes, SYBR Green DNA, 72 h
Outline: as §1

[32] = tested on: CP329; assay: as above; settings: P. falciparum in erythrocytes, SYBR Green DNA, 72 h
Outline: as §1

[33] = tested on: CP335; assay: as above; settings: P. falciparum in erythrocytes, SYBR Green DNA, 72 h
Outline: as §1

[34] = tested on: DFO2036; assay: as above; settings: P. falciparum in erythrocytes, SYBR Green DNA, 72 h
Outline: as §1

[35] = tested on: DIV17; assay: as above; settings: P. falciparum in erythrocytes, SYBR Green DNA, 72 h
Outline: as §1

[36] = tested on: DIV30; assay: as above; settings: P. falciparum in erythrocytes, SYBR Green DNA, 72 h
Outline: as §1

[37] = tested on: Dd2; assay: as above; settings: P. falciparum in erythrocytes, SYBR Green DNA, 72 h
Outline: as §1

[38] = tested on: GB4; assay: as above; settings: P. falciparum in erythrocytes, SYBR Green DNA, 72 h
Outline: as §1

[39] = tested on: HB3; assay: as above; settings: P. falciparum in erythrocytes, SYBR Green DNA, 72 h
Outline: as §1

[40] = tested on: ICS; assay: as above; settings: P. falciparum in erythrocytes, SYBR Green DNA, 72 h
Outline: as §1

[41] = tested on: N140; assay: as above; settings: P. falciparum in erythrocytes, SYBR Green DNA, 72 h
Outline: as §1

[42] = tested on: PAD; assay: as above; settings: P. falciparum in erythrocytes, SYBR Green DNA, 72 h
Outline: as §1

[43] = tested on: PC26; assay: as above; settings: P. falciparum in erythrocytes, SYBR Green DNA, 72 h
Outline: as §1

[44] = tested on: SC27B; assay: as above; settings: P. falciparum in erythrocytes, SYBR Green DNA, 72 h
Outline: as §1

[45] = tested on: TAB113; assay: as above; settings: P. falciparum in erythrocytes, SYBR Green DNA, 72 h
Outline: as §1

[46] = tested on: TAB165; assay: as above; settings: P. falciparum in erythrocytes, SYBR Green DNA, 72 h
Outline: as §1

C=C(C)C#C[C@@](O)(C(=O)OC1CCN(C)CC1)c1ccccc1
inconclusive: activity change, negative = inhibition [1] -79.2%

CN1CCCC(OC(=O)C(O)(c2ccccc2)c2ccccc2)C1 (configuration not stated)
inconclusive: Potency [2] 10 µM | ratio activity, negative = inhibition [3] -17.6% | Potency ([4]; parasite line A) 4.47 µM | Potency ([4]; parasite line B) 11.2 µM | Potency [5] 11.2 µM | Potency [6] 2.24 µM | Potency [7] 6.31 µM | Potency [8] 0.0794 µM | Potency [9] 0.447 µM | Potency [10] 6.31 µM | Potency [11] 4.78 µM | Potency [12] 7.57 µM | Potency [13] 6.75 µM | Potency [14] 6.75 µM | Potency [15] 6.01 µM | Potency [16] 5.36 µM | Potency [17] 3.16 µM | Potency [18] 5.01 µM | Potency [19] 10 µM | Potency [20] 1 µM | Potency [21] 6.31 µM | Potency [22] 7.08 µM | Potency [23] 0.0953 µM | Potency [24] 6.01 µM | Potency [25] 13.5 µM | Potency [26] 6.31 µM | Potency [27] 7.57 µM | Potency [28] 8.49 µM | Potency [29] 6.01 µM | Potency [30] 12 µM | Potency [31] 6.75 µM | Potency [32] 6.75 µM | Potency [33] 4.78 µM | Potency [34] 3.98 µM | Potency [35] 8.49 µM | Potency [36] 9.53 µM | Potency [37] 0.1 µM | Potency [38] 5.36 µM | Potency [39] 5.62 µM | Potency [40] 4.47 µM | Potency [41] 7.94 µM | Potency [42] 11.2 µM | Potency [43] 4.78 µM | Potency [44] 5.01 µM | Potency [45] 2.82 µM | Potency [46] 3.16 µM
